Experimental data from PMC7578904.
Results are given in words; binding and its absence hold for the method and conditions named. In cells and extracts the contact can be indirect. Some entries that bind do so weakly or less than the wild type. For some assays here: Tags and fused reporters may be left off the sequences shown. Blank lines part the entries; values can stand above or below the molecule they belong to.

Amino acid sequences for entries named in this document (tags omitted). A change or cut given only in a name is not applied to a line headed by its entry.
UniProt Q8IYW5: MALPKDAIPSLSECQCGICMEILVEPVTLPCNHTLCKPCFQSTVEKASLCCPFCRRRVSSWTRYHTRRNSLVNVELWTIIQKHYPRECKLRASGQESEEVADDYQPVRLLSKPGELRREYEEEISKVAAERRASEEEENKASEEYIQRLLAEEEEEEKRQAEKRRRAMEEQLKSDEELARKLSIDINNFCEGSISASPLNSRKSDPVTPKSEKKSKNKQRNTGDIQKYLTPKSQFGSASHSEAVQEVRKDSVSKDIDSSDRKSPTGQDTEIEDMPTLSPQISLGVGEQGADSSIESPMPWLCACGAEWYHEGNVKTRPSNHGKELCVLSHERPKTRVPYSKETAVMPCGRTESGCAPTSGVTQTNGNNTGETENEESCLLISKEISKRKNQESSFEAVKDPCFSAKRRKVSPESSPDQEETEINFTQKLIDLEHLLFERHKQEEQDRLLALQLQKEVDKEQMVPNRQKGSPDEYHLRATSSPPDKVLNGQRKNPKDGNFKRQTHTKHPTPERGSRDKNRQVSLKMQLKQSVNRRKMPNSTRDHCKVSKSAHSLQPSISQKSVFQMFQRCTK
UniProt P49959: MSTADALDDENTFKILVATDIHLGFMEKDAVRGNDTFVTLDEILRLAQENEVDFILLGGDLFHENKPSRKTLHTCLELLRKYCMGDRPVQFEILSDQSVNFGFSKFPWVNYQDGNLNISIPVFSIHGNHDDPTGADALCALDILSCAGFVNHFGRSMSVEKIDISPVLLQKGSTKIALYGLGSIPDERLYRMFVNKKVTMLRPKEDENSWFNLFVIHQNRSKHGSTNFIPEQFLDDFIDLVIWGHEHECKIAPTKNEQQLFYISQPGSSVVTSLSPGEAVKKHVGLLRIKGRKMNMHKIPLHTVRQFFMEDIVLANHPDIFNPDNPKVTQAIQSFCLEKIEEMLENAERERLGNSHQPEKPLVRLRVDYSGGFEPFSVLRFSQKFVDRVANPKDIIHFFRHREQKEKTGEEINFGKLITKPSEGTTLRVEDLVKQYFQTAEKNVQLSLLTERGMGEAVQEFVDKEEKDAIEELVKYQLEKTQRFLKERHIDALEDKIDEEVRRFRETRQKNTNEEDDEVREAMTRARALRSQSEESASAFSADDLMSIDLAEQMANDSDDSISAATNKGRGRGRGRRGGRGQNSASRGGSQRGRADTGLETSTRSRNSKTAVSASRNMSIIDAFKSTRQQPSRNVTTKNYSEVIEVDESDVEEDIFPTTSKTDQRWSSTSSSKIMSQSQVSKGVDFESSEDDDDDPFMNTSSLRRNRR
UniProt Q92878: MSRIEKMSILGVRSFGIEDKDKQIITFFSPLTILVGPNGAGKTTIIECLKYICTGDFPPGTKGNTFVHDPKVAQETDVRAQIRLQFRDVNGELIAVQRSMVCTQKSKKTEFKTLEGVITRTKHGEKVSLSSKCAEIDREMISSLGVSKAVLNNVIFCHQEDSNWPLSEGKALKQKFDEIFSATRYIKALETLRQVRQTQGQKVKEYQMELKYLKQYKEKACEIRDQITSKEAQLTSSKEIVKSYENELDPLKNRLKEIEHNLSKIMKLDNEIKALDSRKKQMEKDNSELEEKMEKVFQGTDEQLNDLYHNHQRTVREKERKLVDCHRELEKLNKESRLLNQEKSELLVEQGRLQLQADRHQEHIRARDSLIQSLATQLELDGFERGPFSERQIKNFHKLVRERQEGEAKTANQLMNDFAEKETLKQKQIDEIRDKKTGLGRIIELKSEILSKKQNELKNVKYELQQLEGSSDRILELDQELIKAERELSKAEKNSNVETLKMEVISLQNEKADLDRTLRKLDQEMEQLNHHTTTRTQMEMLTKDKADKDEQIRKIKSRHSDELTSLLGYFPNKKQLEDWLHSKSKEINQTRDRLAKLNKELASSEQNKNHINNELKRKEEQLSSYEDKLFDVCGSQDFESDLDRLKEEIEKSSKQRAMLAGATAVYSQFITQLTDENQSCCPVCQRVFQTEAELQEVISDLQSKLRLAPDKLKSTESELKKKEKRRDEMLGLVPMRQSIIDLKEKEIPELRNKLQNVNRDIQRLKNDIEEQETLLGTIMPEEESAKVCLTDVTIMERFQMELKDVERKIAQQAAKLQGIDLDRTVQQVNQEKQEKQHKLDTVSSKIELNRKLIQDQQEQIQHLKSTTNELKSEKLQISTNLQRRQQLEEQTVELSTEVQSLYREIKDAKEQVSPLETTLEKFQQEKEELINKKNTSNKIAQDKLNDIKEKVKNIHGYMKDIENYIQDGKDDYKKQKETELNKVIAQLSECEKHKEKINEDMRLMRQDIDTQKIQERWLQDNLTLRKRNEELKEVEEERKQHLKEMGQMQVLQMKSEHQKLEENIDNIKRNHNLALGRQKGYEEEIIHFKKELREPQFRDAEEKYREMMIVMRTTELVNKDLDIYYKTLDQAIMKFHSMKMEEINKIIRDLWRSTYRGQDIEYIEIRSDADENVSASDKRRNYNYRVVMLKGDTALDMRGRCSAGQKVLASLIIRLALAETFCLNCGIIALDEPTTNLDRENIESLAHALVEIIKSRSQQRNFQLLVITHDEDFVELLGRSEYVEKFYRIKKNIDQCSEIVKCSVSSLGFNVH
UniProt O60934: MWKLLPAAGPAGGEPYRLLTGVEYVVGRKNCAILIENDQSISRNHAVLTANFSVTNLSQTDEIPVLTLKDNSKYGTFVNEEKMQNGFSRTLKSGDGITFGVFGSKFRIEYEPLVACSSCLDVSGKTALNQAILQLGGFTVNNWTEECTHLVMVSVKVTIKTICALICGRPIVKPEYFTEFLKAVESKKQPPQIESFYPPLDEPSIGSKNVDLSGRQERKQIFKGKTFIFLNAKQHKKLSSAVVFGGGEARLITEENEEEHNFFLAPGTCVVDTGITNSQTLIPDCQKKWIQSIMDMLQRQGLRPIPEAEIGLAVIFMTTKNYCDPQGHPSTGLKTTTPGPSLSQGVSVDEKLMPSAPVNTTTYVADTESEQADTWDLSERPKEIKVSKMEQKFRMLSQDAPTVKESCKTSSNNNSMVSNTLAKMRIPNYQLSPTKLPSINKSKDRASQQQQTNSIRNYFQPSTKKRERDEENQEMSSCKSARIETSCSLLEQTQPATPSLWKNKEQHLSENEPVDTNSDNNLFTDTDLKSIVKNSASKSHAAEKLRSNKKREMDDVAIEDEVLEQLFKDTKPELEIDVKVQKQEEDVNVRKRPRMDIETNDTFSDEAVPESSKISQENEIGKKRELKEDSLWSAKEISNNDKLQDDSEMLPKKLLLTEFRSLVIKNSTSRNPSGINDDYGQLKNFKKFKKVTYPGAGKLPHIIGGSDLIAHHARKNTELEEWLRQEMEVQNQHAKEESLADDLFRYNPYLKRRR
UniProt Q13547: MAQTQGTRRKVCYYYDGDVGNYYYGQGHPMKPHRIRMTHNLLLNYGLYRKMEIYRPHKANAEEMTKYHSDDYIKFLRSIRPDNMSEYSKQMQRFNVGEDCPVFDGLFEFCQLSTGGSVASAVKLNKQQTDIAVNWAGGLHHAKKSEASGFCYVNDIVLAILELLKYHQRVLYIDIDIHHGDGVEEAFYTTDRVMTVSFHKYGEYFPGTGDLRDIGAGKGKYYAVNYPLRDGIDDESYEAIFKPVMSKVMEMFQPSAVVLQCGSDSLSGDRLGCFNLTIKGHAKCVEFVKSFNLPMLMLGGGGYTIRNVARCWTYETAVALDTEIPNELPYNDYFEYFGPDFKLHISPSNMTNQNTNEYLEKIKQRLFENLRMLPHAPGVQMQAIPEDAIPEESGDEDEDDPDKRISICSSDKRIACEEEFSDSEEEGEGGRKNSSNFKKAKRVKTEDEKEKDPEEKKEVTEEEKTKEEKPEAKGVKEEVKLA
UniProt Q92769: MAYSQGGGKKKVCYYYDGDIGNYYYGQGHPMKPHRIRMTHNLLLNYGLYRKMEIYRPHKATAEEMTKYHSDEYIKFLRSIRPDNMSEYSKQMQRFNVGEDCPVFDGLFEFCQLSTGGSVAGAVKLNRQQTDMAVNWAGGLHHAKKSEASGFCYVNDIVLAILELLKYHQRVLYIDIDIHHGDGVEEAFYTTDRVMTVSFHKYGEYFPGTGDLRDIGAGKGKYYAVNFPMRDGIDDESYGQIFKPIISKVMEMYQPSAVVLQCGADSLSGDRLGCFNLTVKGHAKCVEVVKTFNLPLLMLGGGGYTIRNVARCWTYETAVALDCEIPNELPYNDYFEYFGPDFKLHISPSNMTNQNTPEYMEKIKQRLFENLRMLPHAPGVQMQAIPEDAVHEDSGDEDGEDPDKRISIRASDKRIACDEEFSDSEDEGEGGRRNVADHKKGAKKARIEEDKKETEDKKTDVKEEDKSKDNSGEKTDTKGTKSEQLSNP

Assays:
[1] = target: T1, BRD7 (endogenous) (human (endogenous in HeLa)) (UniProt Q9NPI1); assay: co-IP; endogenous proteins of HeLa cells, untreated or treated with IR (5 Gy) or CPT (1 uM, 1 h); lysed in RIPA buffer, IP with the indicated antibodies overnight at 4 °C, washed three times with NETN buffer, Western blot
T1 sequence: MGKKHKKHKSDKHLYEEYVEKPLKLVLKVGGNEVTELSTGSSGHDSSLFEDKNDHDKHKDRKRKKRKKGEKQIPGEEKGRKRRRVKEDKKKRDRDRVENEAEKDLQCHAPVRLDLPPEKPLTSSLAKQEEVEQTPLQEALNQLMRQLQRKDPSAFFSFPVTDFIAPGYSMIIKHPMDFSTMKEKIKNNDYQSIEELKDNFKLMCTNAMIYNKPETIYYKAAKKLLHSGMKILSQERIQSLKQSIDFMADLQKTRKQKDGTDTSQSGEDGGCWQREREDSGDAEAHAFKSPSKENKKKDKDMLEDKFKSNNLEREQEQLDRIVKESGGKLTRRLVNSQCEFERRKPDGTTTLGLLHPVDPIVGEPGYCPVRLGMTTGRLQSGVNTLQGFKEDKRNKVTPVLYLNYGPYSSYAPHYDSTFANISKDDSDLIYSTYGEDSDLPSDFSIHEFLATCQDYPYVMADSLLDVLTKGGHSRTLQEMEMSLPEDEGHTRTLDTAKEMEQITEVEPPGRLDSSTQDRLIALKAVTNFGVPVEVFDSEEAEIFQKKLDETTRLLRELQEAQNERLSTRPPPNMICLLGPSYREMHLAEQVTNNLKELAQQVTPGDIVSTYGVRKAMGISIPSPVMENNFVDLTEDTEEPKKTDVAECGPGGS

[2] = target: T2, BRD7 (ΔBD, a mutant lacking the bromodomain) (human) (UniProt Q9NPI1); assay: pull-down; GST-BRD7 wildtype and mutants purified from bacteria, immobilised on glutathione-agarose beads, incubated with HeLa cell lysates overnight at 30 °C, washed with NETN buffer three times, Western blot; only the target purified
T2 sequence: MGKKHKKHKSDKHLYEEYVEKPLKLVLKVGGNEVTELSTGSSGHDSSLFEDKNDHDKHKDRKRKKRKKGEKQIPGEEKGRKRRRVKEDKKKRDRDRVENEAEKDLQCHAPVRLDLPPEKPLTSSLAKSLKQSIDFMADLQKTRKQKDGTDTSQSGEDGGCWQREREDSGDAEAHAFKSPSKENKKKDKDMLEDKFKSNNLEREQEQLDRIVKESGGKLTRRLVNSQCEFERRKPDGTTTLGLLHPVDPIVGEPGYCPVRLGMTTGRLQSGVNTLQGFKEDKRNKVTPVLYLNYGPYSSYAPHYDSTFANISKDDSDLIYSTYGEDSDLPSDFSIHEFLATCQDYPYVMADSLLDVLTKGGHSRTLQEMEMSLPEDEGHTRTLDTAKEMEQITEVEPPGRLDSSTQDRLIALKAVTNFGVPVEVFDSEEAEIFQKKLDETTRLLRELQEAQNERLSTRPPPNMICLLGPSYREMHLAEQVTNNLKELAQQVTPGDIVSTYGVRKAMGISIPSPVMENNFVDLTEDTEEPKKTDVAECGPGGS

[3] = target: T3, GST-BRD7 wildtype (human) (UniProt Q9NPI1); assay: as above
T3 sequence: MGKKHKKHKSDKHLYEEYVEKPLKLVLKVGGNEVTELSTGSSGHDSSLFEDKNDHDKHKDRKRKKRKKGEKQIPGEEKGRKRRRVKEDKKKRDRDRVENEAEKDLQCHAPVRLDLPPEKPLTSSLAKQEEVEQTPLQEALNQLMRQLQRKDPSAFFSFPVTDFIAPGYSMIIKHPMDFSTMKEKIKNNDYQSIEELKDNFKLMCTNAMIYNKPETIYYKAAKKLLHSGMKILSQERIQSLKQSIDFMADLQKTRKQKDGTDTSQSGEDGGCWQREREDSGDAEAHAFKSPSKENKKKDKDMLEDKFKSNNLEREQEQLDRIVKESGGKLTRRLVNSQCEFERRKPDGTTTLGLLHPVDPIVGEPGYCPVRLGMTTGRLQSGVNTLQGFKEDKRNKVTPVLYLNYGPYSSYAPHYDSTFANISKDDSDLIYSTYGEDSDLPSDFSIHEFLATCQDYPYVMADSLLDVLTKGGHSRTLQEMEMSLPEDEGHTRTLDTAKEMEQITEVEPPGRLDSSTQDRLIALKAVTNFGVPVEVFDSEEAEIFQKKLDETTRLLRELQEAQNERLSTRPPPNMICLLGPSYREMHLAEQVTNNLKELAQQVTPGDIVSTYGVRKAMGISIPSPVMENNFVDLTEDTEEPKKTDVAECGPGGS

[4] = target: T4, BRD7 with deletion of the 1–128 domain (human) (UniProt Q9NPI1); assay: as above
T4 sequence: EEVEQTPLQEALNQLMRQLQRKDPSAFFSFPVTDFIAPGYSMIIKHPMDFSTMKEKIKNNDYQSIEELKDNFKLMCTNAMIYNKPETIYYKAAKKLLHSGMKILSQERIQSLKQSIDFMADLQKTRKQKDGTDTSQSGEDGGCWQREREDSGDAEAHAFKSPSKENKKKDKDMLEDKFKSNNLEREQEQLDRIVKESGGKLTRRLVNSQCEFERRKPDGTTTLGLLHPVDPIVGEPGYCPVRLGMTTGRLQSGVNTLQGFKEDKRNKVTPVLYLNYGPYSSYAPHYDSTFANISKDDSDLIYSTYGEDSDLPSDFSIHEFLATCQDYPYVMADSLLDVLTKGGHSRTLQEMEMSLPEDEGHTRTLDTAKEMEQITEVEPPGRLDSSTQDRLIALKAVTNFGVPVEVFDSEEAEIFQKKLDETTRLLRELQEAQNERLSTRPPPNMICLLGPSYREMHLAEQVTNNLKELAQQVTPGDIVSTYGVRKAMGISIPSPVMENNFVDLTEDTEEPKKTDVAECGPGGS

SFB-BRD7(Δ1-128) (human) = target: T5, SFB-BRD7(Δ1-128) (human) (UniProt Q9NPI1); assay: co-IP; HeLa cells transfected with SFB-BRD7 wild type or deletion mutants for 24 h, IR (5 Gy) for 1 h; lysed with RIPA in the presence of benzonase; S beads; Western blot
T5 sequence: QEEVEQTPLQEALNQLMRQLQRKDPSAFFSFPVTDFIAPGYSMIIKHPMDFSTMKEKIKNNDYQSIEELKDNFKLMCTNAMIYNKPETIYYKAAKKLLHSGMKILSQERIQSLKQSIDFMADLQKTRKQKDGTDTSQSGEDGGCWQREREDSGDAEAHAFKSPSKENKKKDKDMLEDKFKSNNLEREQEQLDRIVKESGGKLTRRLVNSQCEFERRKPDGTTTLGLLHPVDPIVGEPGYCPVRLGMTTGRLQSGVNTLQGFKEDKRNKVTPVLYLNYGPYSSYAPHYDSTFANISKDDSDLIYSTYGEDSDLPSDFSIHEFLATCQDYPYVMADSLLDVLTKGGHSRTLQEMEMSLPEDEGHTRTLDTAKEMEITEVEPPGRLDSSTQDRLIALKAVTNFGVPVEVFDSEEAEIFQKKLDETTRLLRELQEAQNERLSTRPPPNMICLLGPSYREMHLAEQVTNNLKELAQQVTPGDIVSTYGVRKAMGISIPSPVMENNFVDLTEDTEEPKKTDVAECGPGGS

[5] = target: RNF168 (endogenous) (human (endogenous in HeLa)) (UniProt Q8IYW5); assay: co-IP; endogenous proteins of HeLa cells, untreated or treated with IR (5 Gy) or CPT (1 uM, 1 h); lysed in RIPA buffer, IP with the indicated antibodies overnight at 4 °C, washed three times with NETN buffer, Western blot
[6] = target: ATM (endogenous) (human (endogenous in HeLa)) (UniProt Q13315); assay: as above
[7] = target: ATR (endogenous) (human (endogenous in HeLa)) (UniProt Q13535); assay: as above
[8] = target: MRE11‐RAD50‐NBS1 (MRN) complex (human (endogenous in HeLa)) (UniProt P49959+Q92878+O60934); assay: as above
Flag-RNF8 (human) = target: T6, Flag-RNF8 (human) (UniProt O76064); assay: co-IP; HeLa cells transfected with Flag-RNF8 or Flag-RNF168, treated with IR (5 Gy), IP with anti-Flag, Western blot for endogenous BRD7
T6 sequence: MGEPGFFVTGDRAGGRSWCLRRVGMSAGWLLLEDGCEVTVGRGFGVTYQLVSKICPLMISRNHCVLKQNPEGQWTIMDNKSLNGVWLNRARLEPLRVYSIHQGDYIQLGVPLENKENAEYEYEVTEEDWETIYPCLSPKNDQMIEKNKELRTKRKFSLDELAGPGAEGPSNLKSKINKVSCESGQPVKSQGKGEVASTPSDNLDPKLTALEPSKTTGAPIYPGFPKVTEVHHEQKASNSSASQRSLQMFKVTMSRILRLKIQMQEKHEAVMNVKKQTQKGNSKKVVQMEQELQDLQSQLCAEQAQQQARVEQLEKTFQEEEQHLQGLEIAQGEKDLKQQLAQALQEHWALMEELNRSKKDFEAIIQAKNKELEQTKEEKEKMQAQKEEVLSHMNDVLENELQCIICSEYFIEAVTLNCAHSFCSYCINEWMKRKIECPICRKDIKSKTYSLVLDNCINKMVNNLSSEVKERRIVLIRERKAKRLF

Flag-RNF168 (human) = Flag-RNF168 (human) (UniProt Q8IYW5); assay: as above

Molecule: MRE11‐RAD50‐NBS1 (MRN) complex (from UniProt P49959 1-708; Q92878 1-1312; O60934 1-754)
- binding [1]: binds
- binding [2]: binds
- binding [3]: binds
- binding [4]: binds

Molecule: HDAC1 (from UniProt Q13547 1-482) (enzyme)
- binding [1]: no binding

Molecule: HDAC2 (from UniProt Q92769 1-488) (enzyme)
- binding [1]: no binding

Molecule: RNF168 (endogenous) (from UniProt Q8IYW5 1-571) (enzyme)
- binding [3]: binds

The next lines start with the values.

- binding (SFB-BRD7(Δ1-128) (human)): no binding
Molecule: MRE11-RAD50-NBS1 (MRN) complex (from UniProt P49959 1-708; Q92878 1-1312; O60934 1-754)

- binding [5]: binds
- binding [6]: binds
- binding [7]: binds
- binding [8]: binds
- binding (Flag-RNF8 (human)): no binding
- binding (Flag-RNF168 (human)): binds
B1: BRD7 (endogenous) (protein, UniProt Q9NPI1-2 1-652)
chain: MGKKHKKHKSDKHLYEEYVEKPLKLVLKVGGNEVTELSTGSSGHDSSLFEDKNDHDKHKDRKRKKRKKGEKQIPGEEKGRKRRRVKEDKKKRDRDRVENEAEKDLQCHAPVRLDLPPEKPLTSSLAKQEEVEQTPLQEALNQLMRQLQRKDPSAFFSFPVTDFIAPGYSMIIKHPMDFSTMKEKIKNNDYQSIEELKDNFKLMCTNAMIYNKPETIYYKAAKKLLHSGMKILSQERIQSLKQSIDFMADLQKTRKQKDGTDTSQSGEDGGCWQREREDSGDAEAHAFKSPSKENKKKDKDMLEDKFKSNNLEREQEQLDRIVKESGGKLTRRLVNSQCEFERRKPDGTTTLGLLHPVDPIVGEPGYCPVRLGMTTGRLQSGVNTLQGFKEDKRNKVTPVLYLNYGPYSSYAPHYDSTFANISKDDSDLIYSTYGEDSDLPSDFSIHEFLATCQDYPYVMADSLLDVLTKGGHSRTLQEMEMSLPEDEGHTRTLDTAKEMEQITEVEPPGRLDSSTQDRLIALKAVTNFGVPVEVFDSEEAEIFQKKLDETTRLLRELQEAQNERLSTRPPPNMICLLGPSYREMHLAEQVTNNLKELAQQVTPGDIVSTYGVRKAMGISIPSPVMENNFVDLTEDTEEPKKTDVAECGPGGS
